This note sets out measurements from patent US4734416A, “Pharmaceutically useful carbostyril derivatives” (Otsuka Pharmaceutical Co., Ltd., priority 1978, dated 1988).

Usually LD50 stands for the dose expected to kill half of the subjects tested.

Structures are written as SMILES.

The series is described as follows: in vivo. To be noted: mouse, iv. As to the method: Mice of ddy-strain having 20-22 g of body weight are used. One test group consists of 10 mice.
Oral administration: Compound to be tested is suspended in 1% Gummi Arabicum physiological NaCl aqueous solution.
Intravenuous administration: Compound to be tested is dissolved in 50% propyleneglycol aqueous solution.

As for `CN1C(=O)CN=C(c2ccccc2)c2cc(Cl)ccc21` [Diazepam, reference compound], the LD50 reads like this: (female mice) 58 mg/kg; (male mice) 59 mg/kg.
